Measurements taken from paper doi:10.1101/2023.12.15.571801.
These are yes or no findings as the source states them, for the method shown. Binding seen in cells or lysates may run through a third protein. Some entries that bind do so weakly or less than the wild type.

Amino acid sequences for entries named in this document (tags omitted).
UniProt P16370: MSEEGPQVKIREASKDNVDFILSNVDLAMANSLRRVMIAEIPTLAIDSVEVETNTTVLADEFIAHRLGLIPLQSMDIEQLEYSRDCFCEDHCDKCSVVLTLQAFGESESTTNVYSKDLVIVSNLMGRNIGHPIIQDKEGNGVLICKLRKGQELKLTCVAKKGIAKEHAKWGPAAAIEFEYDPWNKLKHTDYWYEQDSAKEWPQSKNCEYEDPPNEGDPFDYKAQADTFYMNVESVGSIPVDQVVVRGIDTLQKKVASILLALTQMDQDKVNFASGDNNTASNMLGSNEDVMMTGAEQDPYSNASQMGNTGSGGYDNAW

How the values were obtained:
[1] = molecular target: T1, Rpb4 (endogenous) (S. cerevisiae (endogenous in yeast extract)) (UniProt P20433); assay: co-IP
T1 sequence: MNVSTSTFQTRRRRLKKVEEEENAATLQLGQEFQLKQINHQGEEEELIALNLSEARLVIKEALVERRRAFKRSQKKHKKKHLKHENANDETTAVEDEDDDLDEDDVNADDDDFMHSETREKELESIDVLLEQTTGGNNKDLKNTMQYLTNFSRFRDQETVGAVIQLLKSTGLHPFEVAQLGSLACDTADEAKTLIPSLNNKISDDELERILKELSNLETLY

[2] = molecular target: Rpb3 (S. cerevisiae (endogenous in yeast extract)) (UniProt P16370); assay: co-IP

B1: Hrr25-TAP (enzyme, UniProt P29295 1-494)
chain: MDLRVGRKFRIGRKIGSGSFGDIYHGTNLISGEEVAIKLESIRSRHPQLDYESRVYRYLSGGVGIPFIRWFGREGEYNAMVIDLLGPSLEDLFNYCHRRFSFKTVIMLALQMFCRIQYIHGRSFIHRDIKPDNFLMGVGRRGSTVHVIDFGLSKKYRDFNTHRHIPYRENKSLTGTARYASVNTHLGIEQSRRDDLESLGYVLIYFCKGSLPWQGLKATTKKQKYDRIMEKKLNVSVETLCSGLPLEFQEYMAYCKNLKFDEKPDYLFLARLFKDLSIKLEYHNDHLFDWTMLRYTKAMVEKQRDLLIEKGDLNANSNAASASNSTDNKSETFNKIKLLAMKKFPTHFHYYKNEDKHNPSPEEIKQQTILNNNAASSLPEELLNALDKGMENLRQQQPQQQVQSSQPQPQPQQLQQQPNGQRPNYYPEPLLQQQQRDSQEQQQQVPMATTRATQYPPQINSNNFNTNQASVPPQMRSNPQQPPQDKPAGQSIWL
For B1, the binding [1] was “binds” and the binding [2] was “binds”.

B2: Bur1 (enzyme, UniProt P23293 1-657)
chain: MSDNGSPAVLPKTEFNKYKIGKVKSTPAIQRDAKTNLTYIKLRKRSSEKVYGCTVFQNHYREDEKLGQGTFGEVYKGIHLETQRQVAMKKIIVSVEKDLFPITAQREITILKRLNHKNIIKLIEMVYDHSPDITNAASSNLHKSFYMILPYMVADLSGVLHNPRINLEMCDIKNMMLQILEGLNYIHCAKFMHRDIKTANILIDHNGVLKLADFGLARLYYGCPPNLKYPGGAGSGAKYTSVVVTRWYRAPELVLGDKQYTTAVDIWGVGCVFAEFFEKKPILQGKTDIDQGHVIFKLLGTPTEEDWAVARYLPGAELTTTNYKPTLRERFGKYLSETGLDFLGQLLALDPYKRLTAMSAKHHPWFKEDPLPSEKITLPTEESHEADIKRYKEEMHQSLSQRVPTAPRGHIVEKGESPVVKNLGAIPRGPKKDDASFLPPSKNVLAKPPPSKIRELHQNPRPYHVNSGYAKTAIPPPAAPAGVNRYGPNNSSRNNRFSGNSTAPNNSRNPVNRFHPETNVSSKYNKVPLPLGPQSRYQGNSNESRYKNSPNDSRYHNPRYVNKPETNFNRQPQKYSRQESNAPINKNYNPSNGSRNMAGDHHQGSRPSHPQFPISPSQGQHQLTSKPIEKKNGSFKDERAKPDESKEFQNSDIADLY
With B2 the binding [1] was “binds”.
